# Data from PMC5260874.
# Amino acid sequences for entries named in this document (tags omitted). Residues count along the entry.
# UniProt P37173, residues 23-567: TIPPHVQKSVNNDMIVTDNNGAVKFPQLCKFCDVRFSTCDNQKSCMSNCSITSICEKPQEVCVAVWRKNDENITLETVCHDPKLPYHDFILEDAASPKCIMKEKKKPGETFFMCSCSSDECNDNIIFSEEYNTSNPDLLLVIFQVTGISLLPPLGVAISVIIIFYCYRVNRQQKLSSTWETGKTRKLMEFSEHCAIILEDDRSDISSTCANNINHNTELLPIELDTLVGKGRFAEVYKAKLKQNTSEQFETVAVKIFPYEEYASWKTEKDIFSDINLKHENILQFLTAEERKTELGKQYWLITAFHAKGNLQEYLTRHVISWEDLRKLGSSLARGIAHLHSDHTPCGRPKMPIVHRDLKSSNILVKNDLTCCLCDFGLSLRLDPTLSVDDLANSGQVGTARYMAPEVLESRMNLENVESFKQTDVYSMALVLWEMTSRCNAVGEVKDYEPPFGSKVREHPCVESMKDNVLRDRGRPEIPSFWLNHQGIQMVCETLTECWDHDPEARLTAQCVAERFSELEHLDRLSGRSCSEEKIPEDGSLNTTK
# UniProt P51784: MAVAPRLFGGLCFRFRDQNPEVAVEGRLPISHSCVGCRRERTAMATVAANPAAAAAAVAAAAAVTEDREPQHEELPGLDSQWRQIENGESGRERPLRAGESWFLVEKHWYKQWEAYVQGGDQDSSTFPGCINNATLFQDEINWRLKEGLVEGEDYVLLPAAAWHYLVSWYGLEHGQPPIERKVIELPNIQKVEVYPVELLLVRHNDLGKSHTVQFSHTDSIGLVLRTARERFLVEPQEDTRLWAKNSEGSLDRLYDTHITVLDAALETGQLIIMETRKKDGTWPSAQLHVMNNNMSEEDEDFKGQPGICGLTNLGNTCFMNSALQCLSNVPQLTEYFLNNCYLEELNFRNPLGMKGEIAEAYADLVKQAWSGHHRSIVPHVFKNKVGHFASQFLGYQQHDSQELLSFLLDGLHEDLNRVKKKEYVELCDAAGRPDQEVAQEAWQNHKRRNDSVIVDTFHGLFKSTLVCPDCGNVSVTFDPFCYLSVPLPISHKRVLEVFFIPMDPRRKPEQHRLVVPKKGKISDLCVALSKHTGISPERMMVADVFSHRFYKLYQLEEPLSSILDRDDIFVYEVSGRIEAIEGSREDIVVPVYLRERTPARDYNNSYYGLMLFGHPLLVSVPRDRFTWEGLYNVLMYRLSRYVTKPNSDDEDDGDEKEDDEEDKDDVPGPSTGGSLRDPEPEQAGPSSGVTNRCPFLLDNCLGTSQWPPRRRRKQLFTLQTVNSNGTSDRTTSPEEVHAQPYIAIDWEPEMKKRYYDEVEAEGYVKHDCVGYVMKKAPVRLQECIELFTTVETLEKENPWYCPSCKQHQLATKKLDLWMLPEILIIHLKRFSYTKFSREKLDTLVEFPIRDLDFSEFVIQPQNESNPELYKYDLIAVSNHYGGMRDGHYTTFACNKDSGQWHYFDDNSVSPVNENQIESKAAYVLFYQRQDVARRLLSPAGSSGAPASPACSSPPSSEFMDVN
# No constants are given. Whether binding was seen depends on the method and setting. In cells and extracts the contact can be indirect. Some binding calls cover weakened binding; strength is not graded here.
# Target: TGFβ-1 receptor II (TβRII), endogenous (human (endogenous in MRC5)) (UniProt P37173)
# Test: co-IP; untreated MRC5 cell lysates, immunoprecipitation with IgG or a TβRII antibody overnight at 4 °C, agarose beads, washed three times in PBS, USP11 and TβRI immunoblotting; endogenous proteins
substance,measurement,value
"USP11, endogenous (from UniProt P51784 1-963) (enzyme)",binding,binds
